The list shows a part of the results.
Experiments:
Assay in all cases: log2 fold change, soluble protein after heating vs DMSO (PISA); higher = thermal stabilisation; K562 lysate, 10 uM; active = over 0.2 and 3.5 SD of the protein, either way, in both replicates (recomputed)
[1] = compound: CN1CC[C@H](c2c(O)cc(O)c3c(=O)cc(-c4ccccc4Cl)oc23)[C@H](O)C1 [alvocidib]
Method in brief: (§1)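 Following dounce homogenisation of K562 pellets in PBS pH 7.4 with 1 mM MgCl2, crude extract at 1 mg/mL protein was incubated for 30 min with 10 μM compound. Aliquots were then heated for 3 min over 48°C-58°C and pooled, NP-40 was added to 0.5% at 4°C, and soluble protein was recovered as the supernatant at 21,000xg for 90 min. Channel-sum-equalised TMTpro 16plex LC-MS/MS quantified this protein. Each value, from duplicates, is a log-two fold change in thermal stability relative to solvent controls.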

Protein sequences, listed by entry. Tags and fused reporters are not part of them. Lines headed by an entry give the natural chain unless they say otherwise; changes in a name come on top.
UniProt Q3SXY8: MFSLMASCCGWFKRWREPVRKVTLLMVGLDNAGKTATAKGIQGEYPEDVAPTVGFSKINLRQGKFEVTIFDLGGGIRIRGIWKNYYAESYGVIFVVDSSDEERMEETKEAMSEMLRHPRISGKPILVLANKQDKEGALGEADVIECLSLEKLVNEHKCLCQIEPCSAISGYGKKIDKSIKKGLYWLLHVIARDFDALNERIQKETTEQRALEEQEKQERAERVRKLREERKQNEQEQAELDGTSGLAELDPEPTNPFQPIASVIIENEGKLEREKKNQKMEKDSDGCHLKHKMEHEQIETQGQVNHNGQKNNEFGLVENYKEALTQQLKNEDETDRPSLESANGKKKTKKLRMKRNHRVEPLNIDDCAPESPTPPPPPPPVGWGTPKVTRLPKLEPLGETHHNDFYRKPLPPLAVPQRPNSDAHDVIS
UniProt Q68CP9, whole entry, looked up: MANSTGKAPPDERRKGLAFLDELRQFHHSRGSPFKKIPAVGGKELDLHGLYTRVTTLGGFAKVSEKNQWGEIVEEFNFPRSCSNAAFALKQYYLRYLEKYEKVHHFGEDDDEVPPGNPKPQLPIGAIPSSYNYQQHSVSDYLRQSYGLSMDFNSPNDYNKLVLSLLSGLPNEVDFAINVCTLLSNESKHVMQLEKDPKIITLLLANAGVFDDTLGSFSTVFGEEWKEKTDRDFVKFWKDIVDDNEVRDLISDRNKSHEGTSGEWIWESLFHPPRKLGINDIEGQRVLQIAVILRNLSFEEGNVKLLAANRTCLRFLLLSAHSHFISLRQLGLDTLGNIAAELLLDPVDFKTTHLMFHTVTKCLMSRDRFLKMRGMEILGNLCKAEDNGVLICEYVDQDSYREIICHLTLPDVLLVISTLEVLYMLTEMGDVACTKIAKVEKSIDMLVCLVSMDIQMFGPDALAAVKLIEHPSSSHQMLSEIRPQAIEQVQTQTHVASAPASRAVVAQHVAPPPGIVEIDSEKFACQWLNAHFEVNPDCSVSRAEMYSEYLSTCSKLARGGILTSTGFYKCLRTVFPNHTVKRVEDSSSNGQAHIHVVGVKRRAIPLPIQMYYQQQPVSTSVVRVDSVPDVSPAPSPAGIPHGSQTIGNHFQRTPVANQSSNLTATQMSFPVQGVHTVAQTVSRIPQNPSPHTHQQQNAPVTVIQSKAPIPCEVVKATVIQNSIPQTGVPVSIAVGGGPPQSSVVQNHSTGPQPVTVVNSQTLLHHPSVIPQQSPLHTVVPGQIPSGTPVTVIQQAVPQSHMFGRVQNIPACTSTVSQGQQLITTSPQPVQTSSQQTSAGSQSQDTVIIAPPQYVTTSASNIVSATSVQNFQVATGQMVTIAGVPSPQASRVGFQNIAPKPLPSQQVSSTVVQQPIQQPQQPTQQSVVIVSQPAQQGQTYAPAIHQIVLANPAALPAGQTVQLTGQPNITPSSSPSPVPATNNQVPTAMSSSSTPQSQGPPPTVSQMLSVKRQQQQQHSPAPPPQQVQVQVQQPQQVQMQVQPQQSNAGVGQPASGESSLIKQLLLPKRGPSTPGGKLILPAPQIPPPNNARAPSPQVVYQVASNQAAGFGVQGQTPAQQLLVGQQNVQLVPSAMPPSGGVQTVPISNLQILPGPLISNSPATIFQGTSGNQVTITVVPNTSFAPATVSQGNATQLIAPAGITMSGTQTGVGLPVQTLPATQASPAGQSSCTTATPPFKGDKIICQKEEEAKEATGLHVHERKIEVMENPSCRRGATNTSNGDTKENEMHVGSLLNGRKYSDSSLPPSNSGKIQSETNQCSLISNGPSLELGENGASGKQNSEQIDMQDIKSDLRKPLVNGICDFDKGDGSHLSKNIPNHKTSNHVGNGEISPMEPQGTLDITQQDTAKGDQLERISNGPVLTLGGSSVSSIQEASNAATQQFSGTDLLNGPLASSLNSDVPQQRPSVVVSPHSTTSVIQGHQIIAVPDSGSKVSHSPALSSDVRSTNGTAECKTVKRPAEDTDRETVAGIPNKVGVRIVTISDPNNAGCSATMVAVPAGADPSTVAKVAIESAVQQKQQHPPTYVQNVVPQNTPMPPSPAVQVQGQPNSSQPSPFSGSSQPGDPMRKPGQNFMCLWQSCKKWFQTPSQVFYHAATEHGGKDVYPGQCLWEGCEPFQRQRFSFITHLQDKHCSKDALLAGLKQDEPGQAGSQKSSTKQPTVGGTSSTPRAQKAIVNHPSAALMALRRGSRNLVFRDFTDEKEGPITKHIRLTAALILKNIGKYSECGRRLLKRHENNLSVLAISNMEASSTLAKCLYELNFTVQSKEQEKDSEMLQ
UniProt Q9Y576: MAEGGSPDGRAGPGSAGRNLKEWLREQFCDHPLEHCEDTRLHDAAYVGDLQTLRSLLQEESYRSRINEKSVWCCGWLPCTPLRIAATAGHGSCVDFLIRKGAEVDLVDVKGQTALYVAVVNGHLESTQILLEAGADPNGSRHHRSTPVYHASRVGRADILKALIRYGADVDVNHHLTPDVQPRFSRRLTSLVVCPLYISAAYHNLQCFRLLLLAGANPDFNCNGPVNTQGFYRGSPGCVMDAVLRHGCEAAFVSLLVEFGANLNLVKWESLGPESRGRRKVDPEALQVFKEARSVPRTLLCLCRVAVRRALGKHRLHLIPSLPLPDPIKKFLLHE
UniProt Q96KC2: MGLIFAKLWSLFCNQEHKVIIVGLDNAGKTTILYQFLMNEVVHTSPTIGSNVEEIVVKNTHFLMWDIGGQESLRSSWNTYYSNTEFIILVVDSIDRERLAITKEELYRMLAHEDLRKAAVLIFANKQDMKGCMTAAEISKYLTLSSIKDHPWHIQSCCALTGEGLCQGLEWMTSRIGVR
UniProt Q8IWW6: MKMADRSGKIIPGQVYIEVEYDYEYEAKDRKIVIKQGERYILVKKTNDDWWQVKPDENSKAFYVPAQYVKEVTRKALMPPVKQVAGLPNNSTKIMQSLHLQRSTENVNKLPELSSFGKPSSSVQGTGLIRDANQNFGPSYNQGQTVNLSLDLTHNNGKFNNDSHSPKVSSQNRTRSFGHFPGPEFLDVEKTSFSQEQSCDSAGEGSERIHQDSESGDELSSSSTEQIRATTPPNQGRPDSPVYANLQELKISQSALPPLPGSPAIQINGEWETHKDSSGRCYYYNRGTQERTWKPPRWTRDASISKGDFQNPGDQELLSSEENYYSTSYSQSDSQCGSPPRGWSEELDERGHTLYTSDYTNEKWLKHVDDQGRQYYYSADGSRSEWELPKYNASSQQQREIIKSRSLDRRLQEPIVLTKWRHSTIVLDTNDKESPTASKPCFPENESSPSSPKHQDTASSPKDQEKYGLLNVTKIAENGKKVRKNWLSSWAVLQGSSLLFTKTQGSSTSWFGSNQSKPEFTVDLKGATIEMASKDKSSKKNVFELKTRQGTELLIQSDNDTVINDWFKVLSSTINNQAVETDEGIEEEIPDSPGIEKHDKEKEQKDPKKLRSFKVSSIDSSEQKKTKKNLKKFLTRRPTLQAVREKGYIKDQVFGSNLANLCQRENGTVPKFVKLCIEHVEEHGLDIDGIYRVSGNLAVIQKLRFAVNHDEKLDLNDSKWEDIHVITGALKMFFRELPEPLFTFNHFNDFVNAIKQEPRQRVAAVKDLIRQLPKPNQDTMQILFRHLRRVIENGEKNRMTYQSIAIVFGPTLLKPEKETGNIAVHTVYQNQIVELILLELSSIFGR
UniProt Q8IUR7, whole entry, looked up: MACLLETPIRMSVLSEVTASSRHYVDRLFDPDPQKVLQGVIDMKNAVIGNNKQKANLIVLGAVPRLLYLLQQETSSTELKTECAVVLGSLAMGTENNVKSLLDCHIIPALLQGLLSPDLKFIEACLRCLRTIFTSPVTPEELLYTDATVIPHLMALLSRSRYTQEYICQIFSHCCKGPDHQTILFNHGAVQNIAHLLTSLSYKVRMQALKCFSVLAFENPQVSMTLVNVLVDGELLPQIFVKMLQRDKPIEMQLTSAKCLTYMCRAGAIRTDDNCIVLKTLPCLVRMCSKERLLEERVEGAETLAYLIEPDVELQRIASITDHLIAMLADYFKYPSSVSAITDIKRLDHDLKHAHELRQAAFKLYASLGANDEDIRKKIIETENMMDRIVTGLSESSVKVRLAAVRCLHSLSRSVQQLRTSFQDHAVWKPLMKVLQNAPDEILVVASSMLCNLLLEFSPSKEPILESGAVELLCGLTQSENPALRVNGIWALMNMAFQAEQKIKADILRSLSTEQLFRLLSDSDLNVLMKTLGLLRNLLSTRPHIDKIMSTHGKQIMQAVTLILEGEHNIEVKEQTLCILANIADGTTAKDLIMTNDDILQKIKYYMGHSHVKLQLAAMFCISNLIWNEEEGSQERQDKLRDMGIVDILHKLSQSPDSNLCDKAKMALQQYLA
UniProt Q6UWY0: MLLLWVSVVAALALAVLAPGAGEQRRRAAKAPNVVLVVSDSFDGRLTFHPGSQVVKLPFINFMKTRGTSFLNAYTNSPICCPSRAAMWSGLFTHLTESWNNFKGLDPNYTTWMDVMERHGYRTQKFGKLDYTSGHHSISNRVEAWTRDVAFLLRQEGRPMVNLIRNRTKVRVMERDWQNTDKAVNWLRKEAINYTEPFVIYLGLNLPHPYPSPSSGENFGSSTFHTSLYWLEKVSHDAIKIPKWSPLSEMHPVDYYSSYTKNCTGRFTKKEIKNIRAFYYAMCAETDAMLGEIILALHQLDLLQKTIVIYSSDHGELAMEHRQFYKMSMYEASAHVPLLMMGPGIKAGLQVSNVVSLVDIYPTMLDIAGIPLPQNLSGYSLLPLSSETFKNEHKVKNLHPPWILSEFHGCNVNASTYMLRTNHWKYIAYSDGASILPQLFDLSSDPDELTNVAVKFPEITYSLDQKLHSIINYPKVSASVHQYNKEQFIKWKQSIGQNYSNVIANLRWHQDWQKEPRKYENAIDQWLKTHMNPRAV
UniProt Q2VPB7: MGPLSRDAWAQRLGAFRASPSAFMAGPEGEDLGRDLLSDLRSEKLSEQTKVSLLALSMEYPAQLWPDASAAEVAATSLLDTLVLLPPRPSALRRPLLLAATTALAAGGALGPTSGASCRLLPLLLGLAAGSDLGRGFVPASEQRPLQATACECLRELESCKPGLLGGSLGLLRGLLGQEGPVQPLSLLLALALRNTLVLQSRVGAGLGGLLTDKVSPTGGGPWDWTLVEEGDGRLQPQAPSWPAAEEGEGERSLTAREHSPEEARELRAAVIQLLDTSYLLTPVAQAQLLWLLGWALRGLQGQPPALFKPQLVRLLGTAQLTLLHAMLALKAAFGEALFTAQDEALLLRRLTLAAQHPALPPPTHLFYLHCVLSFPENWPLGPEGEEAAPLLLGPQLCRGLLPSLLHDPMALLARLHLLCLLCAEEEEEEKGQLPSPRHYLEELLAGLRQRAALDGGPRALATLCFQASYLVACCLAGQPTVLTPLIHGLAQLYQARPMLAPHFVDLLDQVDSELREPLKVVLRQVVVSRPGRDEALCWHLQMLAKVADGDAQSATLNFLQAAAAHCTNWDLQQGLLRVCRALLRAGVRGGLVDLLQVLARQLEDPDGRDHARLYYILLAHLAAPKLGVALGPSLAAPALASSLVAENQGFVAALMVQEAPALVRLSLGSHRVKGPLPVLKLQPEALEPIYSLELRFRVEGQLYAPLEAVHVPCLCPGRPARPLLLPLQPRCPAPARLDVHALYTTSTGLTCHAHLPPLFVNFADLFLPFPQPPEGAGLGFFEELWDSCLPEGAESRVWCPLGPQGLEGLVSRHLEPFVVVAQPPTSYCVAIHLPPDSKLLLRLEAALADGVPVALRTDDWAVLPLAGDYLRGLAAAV
UniProt P05067, whole entry, looked up: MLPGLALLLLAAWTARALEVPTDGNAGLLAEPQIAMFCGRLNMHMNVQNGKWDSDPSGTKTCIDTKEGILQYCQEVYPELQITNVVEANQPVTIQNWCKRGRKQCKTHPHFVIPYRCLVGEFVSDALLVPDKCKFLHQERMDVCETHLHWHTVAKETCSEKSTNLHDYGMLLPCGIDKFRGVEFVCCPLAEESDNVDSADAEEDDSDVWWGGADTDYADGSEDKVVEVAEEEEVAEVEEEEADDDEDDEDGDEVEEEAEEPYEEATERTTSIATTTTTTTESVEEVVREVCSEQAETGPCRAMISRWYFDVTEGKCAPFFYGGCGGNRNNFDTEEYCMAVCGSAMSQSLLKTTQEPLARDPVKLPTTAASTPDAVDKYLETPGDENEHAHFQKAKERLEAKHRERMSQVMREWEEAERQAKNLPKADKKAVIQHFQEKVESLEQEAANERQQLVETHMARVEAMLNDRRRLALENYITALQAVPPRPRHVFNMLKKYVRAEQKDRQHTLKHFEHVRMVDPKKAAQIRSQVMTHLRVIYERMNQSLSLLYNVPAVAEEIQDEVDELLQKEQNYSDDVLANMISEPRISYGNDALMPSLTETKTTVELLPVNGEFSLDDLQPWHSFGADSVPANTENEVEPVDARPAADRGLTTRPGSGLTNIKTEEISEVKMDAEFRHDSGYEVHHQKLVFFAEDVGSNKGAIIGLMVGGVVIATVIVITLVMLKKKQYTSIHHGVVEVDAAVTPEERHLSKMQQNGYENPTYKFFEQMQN

[2] = compound: CN1CCc2c(c3ccccc3n2Cc2ccc(C(=O)NO)cc2)C1 [Tubastatin A]
Method in brief: as §1

[3] = compound: CNC(=O)C1=CC=CC=C1NC2=NC(=NC=C2Cl)NC3=C(C=C(C=C3)N4CCOCC4)OC
Method in brief: as §1

[4] = compound: CNC(=O)c1ccc(Nc2ncc(C(F)(F)F)c(NCc3nccnc3N(C)S(C)(=O)=O)n2)cc1 [defactinib]
Method in brief: as §1

[5] = compound: CNc1nc(-c2ccc3c(N)n[nH]c3c2)cc(N2C[C@@H](C(=O)NC3CCCCC3)CC[C@H]2C)n1
Method in brief: as §1

[6] = compound: COc1cc2nc(-c3cc(F)ccc3O)nc(N[C@@H]3CNC[C@H]3C(C)(C)O)c2cc1OC
Method in brief: as §1

[7] = compound: CS(=O)(=O)CCNCc1ccc(-c2ccc3ncnc(Nc4ccc(OCc5cccc(F)c5)c(Cl)c4)c3c2)o1 [lapatinib]
Method in brief: as §1

[8] = compound: CS(=O)(=O)N1CCN(Cc2cc3nc(-c4cccc5[nH]ncc45)nc(N4CCOCC4)c3s2)CC1 [pictilisib]
Method in brief: as §1

[9] = compound: C[C@@H](Oc1cc(-c2cnn(C3CCNCC3)c2)cnc1N)c1c(Cl)ccc(F)c1Cl [crizotinib]
Method in brief: as §1

[10] = compound: C[C@H](C1=CC=C(C=C1)C(=O)NC2=C3C=CNC3=NC=C2)N
Method in brief: as §1

[11] = compound: C[C@H](Nc1ncnc2nc[nH]c12)c1cc2cccc(Cl)c2c(=O)n1-c1ccccc1 [duvelisib]
Method in brief: as §1

[12] = compound: Cc1cc(Nc2cc(CN3CCOCC3)c3nc(C)c(Cc4ccc(Cl)cc4F)n3n2)n[nH]1 [gandotinib]
Method in brief: as §1

[13] = compound: Cc1ccc(-n2nc(C(C)(C)C)cc2NC(=O)Nc2ccc(OCCN3CCOCC3)c3ccccc23)cc1 [doramapimod]
Method in brief: as §1

[14] = compound: Cc1ccc(NC(=O)c2ccc(CN3CC[C@H](N(C)C)C3)c(C(F)(F)F)c2)cc1Nc1nccc(-c2cncnc2)n1 [bafetinib]
Method in brief: as §1

[15] = compound: Cc1cccc(CC(=O)N2CCc3c2ccc(-c2cn(C)c4ncnc(N)c24)c3F)n1
Method in brief: as §1

[16] = compound: COC(=O)N[C@@H](C)CNc1nccc(-c2cn(C(C)C)nc2-c2cc(Cl)cc(NS(C)(=O)=O)c2F)n1 [encorafenib]
Method in brief: as §1

[17] = compound: COC(=O)[C@H](CCSC)NC(=O)C1=C(C=C(C=C1)NC[C@H](CS)N)C2=CC=CC=C2
Method in brief: as §1

[18] = compound: Cc1cc(Nc2cc(N3CCN(C)CC3)nc(Sc3ccc(NC(=O)C4CC4)cc3)n2)n[nH]1 [tozasertib]
Method in brief: as §1

[19] = compound: COc1cc(Nc2ncc3c(n2)-c2ccc(Cl)cc2C(c2c(F)cccc2OC)=NC3)ccc1C(=O)O [alisertib]
Method in brief: as §1

[20] = compound: COc1cc2ncnc(Nc3ccc(F)c(Cl)c3)c2cc1OCCCN1CCOCC1 [gefitinib]
Method in brief: as §1

Target | log2 fold change [1] | log2 fold change [2] | log2 fold change [3] | log2 fold change [4] | log2 fold change [5] | log2 fold change [6] | log2 fold change [7] | log2 fold change [8] | log2 fold change [9] | log2 fold change [10] | log2 fold change [11] | log2 fold change [12] | log2 fold change [13] | log2 fold change [14] | log2 fold change [15] | log2 fold change [16] | log2 fold change [17] | log2 fold change [18] | log2 fold change [19] | log2 fold change [20]
ARL13B (UniProt Q3SXY8) | inactive: 0.182 | inactive: 0.018 | inactive: 0.165 | inactive: -0.025 | inactive: -0.102 | inactive: 0 | inactive: 0.016 | inactive: -0.074 | inactive: -0.075 | active: 0.4 | inactive: 0.014 | inactive: -0.23 | inactive: -0.068 | inactive: 0.025 | inactive: -0.217 |  |  |  |  | 
APPL2 isoform 3 (UniProt Q8NEU8) | inactive: 0.026 | inactive: -0.071 | inactive: -0.009 | inactive: 0.048 | inactive: -0.14 | inactive: 0.021 | inactive: -0.024 | inactive: -0.074 | inactive: -0.02 | inactive: -0.201 | inactive: 0.02 | inactive: -0.045 | inactive: 0.003 | inactive: 0.192 | inactive: -0.024 | inactive: -0.006 | inactive: 0.066 | inactive: 0.018 |  | 
APOB (UniProt P04114) | inactive: -0.078 | inactive: 0.099 | inactive: -0.021 | inactive: -0.04 | inactive: 0.264 | inactive: 0.023 | inactive: 0.054 | inactive: 0.004 | inactive: -0.003 | inactive: -0.182 | inactive: 0.104 | inactive: 0.084 | inactive: 0.024 | inactive: -0.091 | inactive: 0.06 | inactive: -0.008 | inactive: 0.003 | inactive: 0.015 | inactive: -0.024 | inactive: 0.014
APC (UniProt P25054) | inactive: -0.117 | inactive: -0.055 | inactive: -0.01 | inactive: -0.128 | inactive: -0.089 |  |  | inactive: -0.086 | inactive: -0.038 | inactive: -0.158 | inactive: -0.033 | inactive: 0.005 | inactive: 0.028 | inactive: 0.045 | inactive: 0.043 | inactive: 0.11 | inactive: 0.101 | inactive: 0.056 |  | 
ARID2 (UniProt Q68CP9) | inactive: -0.024 | inactive: -0.091 |  | inactive: -0.007 | inactive: 0.007 | inactive: 0.021 | inactive: -0.017 | inactive: -0.139 | inactive: -0.036 | inactive: -0.097 | inactive: 0.05 | inactive: 0.233 | inactive: -0.001 | inactive: 0.013 | inactive: 0.13 | inactive: 0.013 | inactive: 0.052 | inactive: 0.01 | inactive: -0.064 | inactive: 0.015
ASB1 (UniProt Q9Y576) | inactive: 0.097 | inactive: -0.013 |  | inactive: -0.025 |  |  |  | inactive: 0.071 | inactive: 0.029 | inactive: 0.232 |  | inactive: -0.314 | inactive: -0.048 | inactive: -0.116 | inactive: 0.009 | inactive: 0.322 | inactive: -0.151 | inactive: 0.05 | inactive: -0.039 | inactive: 0.009
ARL5B (UniProt Q96KC2) | inactive: -0.035 | inactive: 0.043 | inactive: 0.007 | inactive: 0.036 |  | inactive: 0 | inactive: -0.207 | inactive: 0.004 | inactive: -0.035 | inactive: -0.138 |  | inactive: 0.083 | inactive: -0.004 | inactive: -0.213 | inactive: 0.084 | inactive: 0.158 | inactive: -0.311 | inactive: 0.064 | inactive: 0.02 | inactive: 0.013
ARHGAP12 isoform 3 (UniProt Q8IWW6) | inactive: -0.129 |  |  | inactive: 0.026 | inactive: -0.03 |  |  |  |  | inactive: 0.054 | inactive: -0.068 | inactive: -0.048 |  |  | inactive: -0.109 |  |  |  |  | 
ARIH1 (UniProt Q9Y4X5) | inactive: 0.012 | inactive: 0.058 | inactive: 0.011 | inactive: -0.032 | inactive: 0.001 | inactive: -0.006 | inactive: 0.008 | inactive: 0.005 | inactive: -0.006 | inactive: 0.018 | inactive: 0.033 | inactive: -0.033 | inactive: 0.028 | inactive: -0.036 | inactive: -0.063 | inactive: -0.007 | inactive: -0.054 | inactive: -0.017 | inactive: 0.004 | inactive: -0.001
ARMC8 isoform 6 (UniProt Q8IUR7) | inactive: -0.002 |  | inactive: 0.032 |  |  | inactive: -0.035 | inactive: 0.008 |  |  | inactive: -0.025 |  | inactive: -0.042 |  |  | inactive: 0.047 |  |  |  |  | 
ARSK (UniProt Q6UWY0) | inactive: -0.123 | inactive: 0.066 | inactive: -0.015 | inactive: 0.089 | inactive: -0.134 | inactive: 0 | inactive: 0.01 |  |  | inactive: -0.184 | inactive: -0.064 | inactive: 0.021 |  |  | inactive: 0.068 | inactive: 0.042 | inactive: 0.108 | inactive: -0.051 |  | 
AP5B1 (UniProt Q2VPB7) | inactive: -0.091 | inactive: -0.149 | inactive: 0.099 |  | inactive: -0.092 | inactive: -0.059 | inactive: 0.095 | inactive: -0.046 | inactive: 0.069 | inactive: 0.034 | inactive: -0.012 | inactive: -0.092 | inactive: 0.272 | inactive: -0.056 | inactive: 0.047 | inactive: -0.017 | inactive: -0.011 | inactive: -0.028 | inactive: -0.008 | inactive: 0.05
APP (UniProt P05067) | inactive: 0.066 |  | inactive: -0.011 |  | inactive: -0.098 |  |  | inactive: 0 | inactive: 0.075 | inactive: -0.121 | inactive: -0.063 | inactive: 0.033 | inactive: 0.033 | inactive: -0.056 | inactive: -0.019 | inactive: 0.078 | inactive: -0.013 | inactive: -0.057 | inactive: -0.016 | inactive: 0.039
ARAP3 (UniProt Q8WWN8) | inactive: -0.123 |  | inactive: 0.07 |  | inactive: -0.087 |  |  |  |  | inactive: 0.158 | inactive: -0.016 | inactive: -0.169 |  |  | inactive: 0.063 | inactive: 0.184 | inactive: 0.02 | inactive: -0.039 | inactive: 0.04 | inactive: -0.067

— the supplement of paper PMC10849652
